# From PMC7819943, “Rice protein-binding microarrays: a tool to detect cis-acting elements near promoter regions in rice”
# The list shows a part of the results.
# Target: T1, OsSMF1 (Oryza sativa, UniProt Q6ZLB0 1-436)
# T1 sequence: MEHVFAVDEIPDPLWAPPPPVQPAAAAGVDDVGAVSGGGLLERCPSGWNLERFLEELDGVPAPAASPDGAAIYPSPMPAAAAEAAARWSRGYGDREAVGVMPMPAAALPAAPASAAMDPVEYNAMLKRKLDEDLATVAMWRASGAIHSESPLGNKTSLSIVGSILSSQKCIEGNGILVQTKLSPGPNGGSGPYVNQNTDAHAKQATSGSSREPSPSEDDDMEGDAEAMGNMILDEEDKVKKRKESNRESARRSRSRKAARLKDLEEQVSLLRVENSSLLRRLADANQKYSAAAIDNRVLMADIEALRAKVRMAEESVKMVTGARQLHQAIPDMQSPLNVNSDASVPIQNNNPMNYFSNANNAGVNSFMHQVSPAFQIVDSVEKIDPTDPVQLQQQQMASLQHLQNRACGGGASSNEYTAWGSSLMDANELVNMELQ
# Assay: protein-binding microarray (RPBM); PBS, 2% BSA, 51.3 ng/ul salmon testes DNA, 50 uM zinc acetate, 200 nM TF, 25 C, 1 h; high values mean tight binding
# Conditions: protein: recombinant; tags: N-terminal polyhistidine and DsRed monomer fusion (pET32a); chain copies: 2; label: CyDye5-dUTP incorporated in the synthesized complementary strand; 3' TTTTT single-stranded linker to array surface; dsDNA, one strand shown
# How it was run: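 An Axon 4000B scanner gave the binding signal as per-feature fluorescence intensity in arbitrary units. This followed washing of a custom Agilent array that had been incubated for 1 h at 25 °C with 200 nM protein in PBS, 2% BSA, salmon testes DNA and 50 µM zinc acetate. The proteins were transcription factors fused at the N-terminus to polyhistidine and DsRed, expressed in E. coli BL21-CodonPlus and purified on Ni–NTA.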
row,Sequence,binding signal
1,TTGTCGTCCAATTGGGAGAGTACTGAGTACGTGTACTTCGCGGAGTCACCTAGTGCAG,6550 fluorescence intensity (a.u.)
2,ATCATCCCAAAATCATCGTCAAGTCGTCGCCTCCGGATTGCGGAGTCACCTAGTGCAG,3280 fluorescence intensity (a.u.)
3,CTCATCCGAGCCGTTCATGACGTGGGCCCCGCAAAAGAAGCGGAGTCACCTAGTGCAG,3480 fluorescence intensity (a.u.)
4,ATCCGCATTAACATATTTAATCACACGTGTTATCTCAAACCGGAGTCACCTAGTGCAG,9920 fluorescence intensity (a.u.)
5,CCCACCTCGCGCGGCACATGCGCGACGTGTTCGCCATTGGCGGAGTCACCTAGTGCAG,3550 fluorescence intensity (a.u.)
6,TGATAATGTGATATCTGGAATAGTGTAGATGATGGTATAGCGGAGTCACCTAGTGCAG,27600 fluorescence intensity (a.u.)
7,CTCGTTTTCTCCCAAAATCCGCGAGGTTTTGTTTTGTAGGCGGAGTCACCTAGTGCAG,15600 fluorescence intensity (a.u.)
8,TCCTGCCCAAACAGCATACTGATTGTTGAGGTAGGTAAACCGGAGTCACCTAGTGCAG,7160 fluorescence intensity (a.u.)
9,ACTCCTTGCATAGCTTGAGTCTTCATTTCCAGGTCATGGGCGGAGTCACCTAGTGCAG,3610 fluorescence intensity (a.u.)
10,AACACCAACACACCCTCGGGCCACGACTTCGACTACAACGCGGAGTCACCTAGTGCAG,3290 fluorescence intensity (a.u.)
11,ATGGGGTGGATGCGTCAGAATTTACATAGGCACGGAACGTCGGAGTCACCTAGTGCAG,5800 fluorescence intensity (a.u.)
12,TAATTACTCCATTGGCTTGTCAGCCGACCGGCTCATCATACGGAGTCACCTAGTGCAG,3460 fluorescence intensity (a.u.)
13,GGATCTCTCCTCACTCCTCCGCCACCTCAAAGCTCTCCGTCGGAGTCACCTAGTGCAG,3340 fluorescence intensity (a.u.)
14,CACTGACTCACACCCCGTCACTCCCCTCTTCTCCTCACCTCGGAGTCACCTAGTGCAG,7020 fluorescence intensity (a.u.)
15,TGCCGGTGTGGCTTGCTGAGTACTGTGGTTGTACTCATTCCGGAGTCACCTAGTGCAG,3270 fluorescence intensity (a.u.)
16,ATATATCATACCTTGGTACATTTGTCAGCCTCACGGCAGTCGGAGTCACCTAGTGCAG,3210 fluorescence intensity (a.u.)
17,GGTGGTGGTGGTGGAGAGAGAGAGGAGTGCGTCGCCGACGCGGAGTCACCTAGTGCAG,3460 fluorescence intensity (a.u.)
18,GAGAGATCGTACACGAGTCATTTCAACTCGGACAATTTGCCGGAGTCACCTAGTGCAG,3180 fluorescence intensity (a.u.)
19,ATTAGTATTGGCATAGAATAAACAATTGTCATATCACTTCCGGAGTCACCTAGTGCAG,3250 fluorescence intensity (a.u.)
20,TGCAGTTGGAGGTTTTCCAAGCTCGGGCGACATCATCCTGCGGAGTCACCTAGTGCAG,3520 fluorescence intensity (a.u.)
21,TGTGGCTTAATTAGTTCAAGTAGCAGCTCCTCCTGCAGTCCGGAGTCACCTAGTGCAG,4810 fluorescence intensity (a.u.)

row,Sequence,binding signal
1,GCGAGTTAGGAGGGCGGCGGCGGGGCCTTCTCCTGTGGTGCGGAGTCACCTAGTGCAG,3190 fluorescence intensity (a.u.)
2,CGAAGCAGGTCAACACATTCCACACGTGTCAAGGAATGTACGGAGTCACCTAGTGCAG,4590 fluorescence intensity (a.u.)
3,AGGCGAGCGAGACGGCGGCGGGCGGGCGGGGCGGGCGACGCGGAGTCACCTAGTGCAG,3470 fluorescence intensity (a.u.)
4,TCGCTTACAATCTCAGTAGTGTCAGTAGTGTGATAGAGCACGGAGTCACCTAGTGCAG,5320 fluorescence intensity (a.u.)
5,TGGGGTTGGTAAACGACGTTGACGTGGCACCCCTGCCCCACGGAGTCACCTAGTGCAG,14000 fluorescence intensity (a.u.)
6,TGGGCTATGGTGCCTTCGGTCCAGCACGGCACGGCCCGAGCGGAGTCACCTAGTGCAG,3190 fluorescence intensity (a.u.)
7,GTTTGACACTTTTAGTACGTGTTTGACCATTTGTTTTATTCGGAGTCACCTAGTGCAG,4180 fluorescence intensity (a.u.)
8,CCCCAATCCTCGCATGCCAACTCACCTGTGTTGCTTTTGCCGGAGTCACCTAGTGCAG,7550 fluorescence intensity (a.u.)
9,TTTAACCACATCAGTACAACCCAAAACTTCTTTGAAAGTACGGAGTCACCTAGTGCAG,3210 fluorescence intensity (a.u.)
10,AAAATTACAGTGTAATTACATCATAACTTACGTGTAATTACGGAGTCACCTAGTGCAG,6090 fluorescence intensity (a.u.)
11,CCGGCATGCTGGTCAGCATCGGAAAACTTCCCCTTCAAGACGGAGTCACCTAGTGCAG,3510 fluorescence intensity (a.u.)
12,CACCAGGTGCTCGGCGGCGCACACGTGGACGCGGGTGGCCCGGAGTCACCTAGTGCAG,12200 fluorescence intensity (a.u.)
13,CTAGCCGCACGATCAGCCACGTGGCGGAGATCTAACGGCCCGGAGTCACCTAGTGCAG,27100 fluorescence intensity (a.u.)
14,CCTCCTTGCTCACAGTCACAGATGGGAAGAGAGGAATTGACGGAGTCACCTAGTGCAG,4900 fluorescence intensity (a.u.)
15,GTATCCATTCCTGCAAATCCAAGTTGGCAATTCCGAGGGCCGGAGTCACCTAGTGCAG,3340 fluorescence intensity (a.u.)
16,ACGTTGTTTACTCACCTTTTCCGTACGTGTCAAAGCTACTCGGAGTCACCTAGTGCAG,7170 fluorescence intensity (a.u.)
17,TTGGCCACCTCCACCTCACTCGCATGAAGGCTAAGTGAGCCGGAGTCACCTAGTGCAG,4160 fluorescence intensity (a.u.)
18,GCCTCTCCTCAAGCGGTGGAGAGCGCGGACGTGGACGTGCCGGAGTCACCTAGTGCAG,6520 fluorescence intensity (a.u.)
19,ACAAGAGCCAGCGCGGCGTGTGTGCGCGATTTCTCTCTTCCGGAGTCACCTAGTGCAG,3210 fluorescence intensity (a.u.)
20,GTCAGCAGCCTCCAGTGGCGTCATCCAATGGAGAAGCCCCCGGAGTCACCTAGTGCAG,4450 fluorescence intensity (a.u.)
21,CTAGCAGTGGCGGTGGCTCGCGGAGACGGTGGCTGGTGGTCGGAGTCACCTAGTGCAG,28800 fluorescence intensity (a.u.)
